Results as given in publication PMC10298087.
These are yes or no findings as the source states them, for the method shown. Binding seen in cells or lysates may run through a third protein. Binding calls can cover weak binding; strength is not graded here. Tags and fused reporters may be left off the sequences shown.

Molecular target: T1, FLAG-tagged mouse Trim28-K255R (mouse) (UniProt Q62318)
T1 sequence: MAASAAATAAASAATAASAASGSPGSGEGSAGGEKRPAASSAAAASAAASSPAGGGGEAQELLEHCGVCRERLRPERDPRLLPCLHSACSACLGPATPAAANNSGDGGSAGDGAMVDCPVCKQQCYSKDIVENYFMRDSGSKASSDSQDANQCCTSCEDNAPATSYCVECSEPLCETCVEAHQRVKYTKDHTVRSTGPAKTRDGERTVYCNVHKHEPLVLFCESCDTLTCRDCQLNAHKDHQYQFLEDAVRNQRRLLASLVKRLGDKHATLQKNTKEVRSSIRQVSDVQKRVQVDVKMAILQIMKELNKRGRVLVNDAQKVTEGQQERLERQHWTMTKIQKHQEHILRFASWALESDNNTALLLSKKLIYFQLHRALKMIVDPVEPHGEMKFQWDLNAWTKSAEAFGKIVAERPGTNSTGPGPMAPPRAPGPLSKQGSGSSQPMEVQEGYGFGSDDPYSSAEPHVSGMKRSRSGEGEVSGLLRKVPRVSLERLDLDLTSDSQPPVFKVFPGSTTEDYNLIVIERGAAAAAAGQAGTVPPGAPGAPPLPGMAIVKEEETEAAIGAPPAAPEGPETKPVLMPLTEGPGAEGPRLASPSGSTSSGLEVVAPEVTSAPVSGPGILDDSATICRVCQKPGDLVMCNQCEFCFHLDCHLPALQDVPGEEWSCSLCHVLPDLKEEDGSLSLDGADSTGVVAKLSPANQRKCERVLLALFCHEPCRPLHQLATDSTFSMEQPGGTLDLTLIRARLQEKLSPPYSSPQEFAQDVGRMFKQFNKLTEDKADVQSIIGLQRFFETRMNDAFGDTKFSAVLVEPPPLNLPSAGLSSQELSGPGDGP
Experiment: co-IP; FLAG-tagged mouse Trim28 (WT or mutants) and Gal4^DBD-KRAB in TRIM28-knockout K562 cells; IP with anti-FLAG, Western blot with anti-FLAG and anti-Gal4; whole-cell extract buffer with 300 mM NaCl, 0.1% Triton X-100, 4 °C

binding: binds
Substance: Gal4 DNA-binding domain (Gal4^DBD)-KRAB (domain or fragment)
